Laboratory results as given in patent US11951210B2, “Methods for making giant vesicles and their use” (THE JOHNS HOPKINS UNIVERSITY, priority 2017, dated 2024).
At least one structure is not confirmed: it was looked up by name or label, or the drawing left a doubt.

System: minimal actin polymerization machinery (ActA, Arp2/3, G-actin, ATP, and Mg2+)
Test: Rapamycin-triggered actin polymerization and membrane deformation in GUVs
Type: biochemical
Details: final rapamycin approximately 100 μM in outer GUV solution

## CO[C@H]1C[C@@H]2CC[C@@H](C)[C@@](O)(O2)C(=O)C(=O)N2CCCC[C@H]2C(=O)O[C@H]([C@H](C)C[C@@H]2CC[C@@H](O)[C@H](OC)C2)CC(=O)[C@H](C)/C=C(\C)[C@@H](O)[C@@H](OC)C(=O)[C@H](C)C[C@H](C)/C=C/C=C/C=C/1C [rapamycin]
  GUV membrane deformation: eventual deformation of the GUV membrane
ActA-FRB-CFP, mCh-FKBP, Arp2/3, AF488 actin
  Actin polymerization in GUVs: driving the actin polymerization at the inner leaflet
